In US4308256A, “Method of inducing analgesia” (American Home Products Corporation, priority 1980, dated 1981):
The source gives many values for each of these; only a part stands here.

Tested on: male Charles River rats
Experiment: D'Amour-Smith rat tail-flick procedure (radiant heat, 8 second cut-off), intraventricular injection
Format: in vivo
Experimental: Intraventricular cannulae, made of 27-gauge stainless steel tubing, are implanted in 300-400 g. male Charles River rats under pentobarbital anesthesia. After a recovery period of at least one week, the rats are restrained in a wire-mesh cylindrical chamber so that the tip of the tail can be positioned at the focal point of a radiant heat source. After an acclimatistation period of 5 minutes, the lamp is turned on and an electric clock activated. Movement of the tip of the tail exposes a photocell to the lamp, which turns off the thermal stimulus and stops the clock. If a rat fails to move its tail within 8 seconds, the heat is automatically turned off to prevent blistering. The intensity of the lamp is adjusted in each case to produce at least three baseline tail-flick latencies of 2.5-4.5 seconds. Tests are initially made every 2 minutes, then every 5 minutes and finally every 15 minutes.
Initially, using the above outlined procedure, the effects of intraventricularly administered leucine-enkephalin are tested in rats according to the above procedure.
The rat tail flick procedure is repeated, first by the simultaneous intraventricular injection of both leucine-enkephalin and bestatin and then by the initial injection of bestatin followed one hour later by the injection of leucine-enkephalin.
The above procedure is repeated again, however, the bestatin is administered first and then one hour later the leucine-enkephalin is administered.
The effects of bestatin alone are tested in rats according to the rat tail flick procedure.

CC(C)C[C@H](NC(=O)[C@@H](O)[C@H](N)Cc1ccccc1)C(=O)O [bestatin, [(2S,3R)-3-amino-2-hydroxy-4-phenylbutanoyl]-L-leucine]
Tail-flick latency (200 μg bestatin alone into lateral ventricle, Rat 1, 6 min): 4.24 s | Tail-flick latency (200 μg bestatin alone into lateral ventricle, Rat 1, 8 min): 8.00 s | Tail-flick latency (200 μg bestatin alone into lateral ventricle, Rat 1, 10 min): 8.00 s | Tail-flick latency (200 μg bestatin alone into lateral ventricle, Rat 1, 12 min): 8.00 s | Tail-flick latency (200 μg bestatin alone into lateral ventricle, Rat 1, 14 min): 6.41 s | Tail-flick latency (200 μg bestatin alone into lateral ventricle, Rat 1, 16 min): 8.00 s | Tail-flick latency (200 μg bestatin alone into lateral ventricle, Rat 1, 18 min): 8.00 s | Tail-flick latency (200 μg bestatin alone into lateral ventricle, Rat 1, 20 min): 7.39 s | Tail-flick latency (200 μg bestatin alone into lateral ventricle, Rat 1, 22 min): 8.00 s | Tail-flick latency (200 μg bestatin alone into lateral ventricle, Rat 1, 24 min): 8.00 s | Tail-flick latency (200 μg bestatin alone into lateral ventricle, Rat 1, 26 min): 7.09 s | Tail-flick latency (200 μg bestatin alone into lateral ventricle, Rat 1, 28 min): 8.00 s | Tail-flick latency (200 μg bestatin alone into lateral ventricle, Rat 1, 30 min): 8.00 s | Tail-flick latency (200 μg bestatin alone into lateral ventricle, Rat 1, 32 min): 3.56 s | Tail-flick latency (200 μg bestatin alone into lateral ventricle, Rat 1, 36 min): 3.26 s | Tail-flick latency (200 μg bestatin alone into lateral ventricle, Rat 1, 38 min): 2.64 s | Tail-flick latency (200 μg bestatin alone into lateral ventricle, Rat 1, 40 min): 3.51 s | Tail-flick latency (200 μg bestatin alone into lateral ventricle, Rat 1, 42 min): 4.24 s | Tail-flick latency (200 μg bestatin alone into lateral ventricle, Rat 1, 44 min): 2.81 s | Tail-flick latency (400 μg bestatin alone into lateral ventricle, Rat 1, 2 min): 4.07 s | Tail-flick latency (400 μg bestatin alone into lateral ventricle, Rat 1, 4 min): 8.00 s | Tail-flick latency (400 μg bestatin alone into lateral ventricle, Rat 1, 6 min): 8.00 s | Tail-flick latency (400 μg bestatin alone into lateral ventricle, Rat 1, 8 min): 8.00 s | Tail-flick latency (400 μg bestatin alone into lateral ventricle, Rat 1, 10 min): 8.00 s | Tail-flick latency (400 μg bestatin alone into lateral ventricle, Rat 1, 12 min): 8.00 s | Tail-flick latency (400 μg bestatin alone into lateral ventricle, Rat 1, 14 min): 8.00 s | Tail-flick latency (400 μg bestatin alone into lateral ventricle, Rat 1, 16 min): 8.00 s | Tail-flick latency (400 μg bestatin alone into lateral ventricle, Rat 1, 18 min): 8.00 s | Tail-flick latency (400 μg bestatin alone into lateral ventricle, Rat 1, 20 min): 8.00 s | Tail-flick latency (400 μg bestatin alone into lateral ventricle, Rat 1, 22 min): 8.00 s | Tail-flick latency (400 μg bestatin alone into lateral ventricle, Rat 1, 24 min): 8.00 s | Tail-flick latency (400 μg bestatin alone into lateral ventricle, Rat 1, 26 min): 8.00 s | Tail-flick latency (400 μg bestatin alone into lateral ventricle, Rat 1, 28 min): 8.00 s | Tail-flick latency (400 μg bestatin alone into lateral ventricle, Rat 1, 30 min): 8.00 s | Tail-flick latency (400 μg bestatin alone into lateral ventricle, Rat 1, 35 min): 8.00 s | Tail-flick latency (400 μg bestatin alone into lateral ventricle, Rat 1, 40 min): 8.00 s | Tail-flick latency (400 μg bestatin alone into lateral ventricle, Rat 1, 45 min): 8.00 s | Tail-flick latency (400 μg bestatin alone into lateral ventricle, Rat 1, 50 min): 8.00 s | Tail-flick latency (400 μg bestatin alone into lateral ventricle, Rat 1, 55 min): 8.00 s | Tail-flick latency (400 μg bestatin alone into lateral ventricle, Rat 1, 60 min): 8.00 s | Tail-flick latency (400 μg bestatin alone into lateral ventricle, Rat 1, 75 min): 8.00 s | Tail-flick latency (400 μg bestatin alone into lateral ventricle, Rat 1, 90 min): 8.00 s | Tail-flick latency (400 μg bestatin alone into lateral ventricle, Rat 1, 105 min): 8.00 s | Tail-flick latency (400 μg bestatin alone into lateral ventricle, Rat 1, 120 min): 8.00 s | Tail-flick latency (400 μg bestatin alone into lateral ventricle, Rat 1, 135 min): 8.00 s | Tail-flick latency (400 μg bestatin alone into lateral ventricle, Rat 1, 150 min): 8.00 s | Tail-flick latency (400 μg bestatin alone into lateral ventricle, Rat 1, 165 min): 8.00 s | Tail-flick latency (400 μg bestatin alone into lateral ventricle, Rat 1, 180 min): 8.00 s | Tail-flick latency (400 μg bestatin alone into lateral ventricle, Rat 1, 195 min): 8.00 s
